# PubChem BioAssay AID504327 (National Center for Advancing Translational Sciences (NCATS), 2011)
# Sequences of proteins named here, by UniProt entry; tags and fusion partners are left off.
# UniProt Q92830, whole entry, looked up: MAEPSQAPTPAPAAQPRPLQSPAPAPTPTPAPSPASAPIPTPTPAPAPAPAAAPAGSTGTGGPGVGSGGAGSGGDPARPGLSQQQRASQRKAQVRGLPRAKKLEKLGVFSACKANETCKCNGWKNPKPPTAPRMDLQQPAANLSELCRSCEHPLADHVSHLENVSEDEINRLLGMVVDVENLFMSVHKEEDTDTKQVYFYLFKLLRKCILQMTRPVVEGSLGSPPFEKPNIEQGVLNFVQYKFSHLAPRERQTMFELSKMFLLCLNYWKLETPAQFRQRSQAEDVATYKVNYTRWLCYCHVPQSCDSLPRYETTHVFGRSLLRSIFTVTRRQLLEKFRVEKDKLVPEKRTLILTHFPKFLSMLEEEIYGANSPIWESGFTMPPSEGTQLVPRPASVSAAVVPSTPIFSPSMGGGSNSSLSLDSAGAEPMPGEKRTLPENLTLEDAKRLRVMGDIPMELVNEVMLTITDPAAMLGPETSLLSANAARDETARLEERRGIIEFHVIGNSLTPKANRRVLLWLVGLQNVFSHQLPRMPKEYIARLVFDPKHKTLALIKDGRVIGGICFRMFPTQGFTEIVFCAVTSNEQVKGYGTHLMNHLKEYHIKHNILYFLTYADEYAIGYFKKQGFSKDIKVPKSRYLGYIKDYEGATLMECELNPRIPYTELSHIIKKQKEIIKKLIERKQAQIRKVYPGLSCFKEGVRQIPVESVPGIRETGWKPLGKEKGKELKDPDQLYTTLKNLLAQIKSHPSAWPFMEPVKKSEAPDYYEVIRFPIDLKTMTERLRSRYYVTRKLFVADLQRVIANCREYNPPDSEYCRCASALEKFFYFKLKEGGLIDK
# Among all 390,000 compounds or so, about 820 (0.21%) were called active. The inconclusive results got no clear call from the source; some entries with a clear call stand among them for comparison. Calls follow the shape of the dose curve; as a rule, active = well fitted inhibition curve with a large enough effect; inconclusive = small, poorly fitted or top-dose-only effect, or another doubt; inactive = no such curve, though single readings can be large or run the other way. A potency beside an inconclusive call is a rough fit, not a confirmed value.
# Molecular target: Histone acetyltransferase KAT2A (Homo sapiens) (UniProt Q92830)
# Assay: qHTS Assay for Inhibitors of GCN5L2
# Conditions: GCN5L2 HAT assay, ThioGlo1 CoA-SH fluorescence; activity change, negative = inhibition: at 58.9 µM (top of the series) unless noted
# Summary of the method: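 Preincubate 20nM GCN5L2 with compound 15 min, RT → add 50uM ThioGlo1 + 75uM H3(1-25) + 70uM acetyl-CoA → read fluorescence 0 and 20 min. Primary qHTS; fluorescent artifacts likely.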
# % is scaled to controls: 0 for no effect and ±100 for the full control effect; potency is read from the fitted curve at half-maximal effect.
SMILES,Potency,"activity change, negative = inhibition"
NNC(=O)c1nc[nH]c1C(=O)Nc1ccccc1,"inconclusive: 39.8 µM [inhibitor, single point]",–
CSS(=O)(=O)c1cccc2cccnc12,active: 8.91 µM,–
O=C(CCN1C(=O)/C(=C/c2ccccc2F)SC1=S)Nc1cccnc1,–,inactive: -12.7%
C=CCn1c(SCC(=O)c2ccc(O)c(O)c2)nnc1-c1cccc(Cl)c1,–,inactive: -10.1%
CCC1C(=O)Nc2ccccc2N1C(=O)COc1ccccc1 (configuration not stated),"inconclusive: 12.6 µM [inhibitor, partial curve]",–
CCc1ccccc1OCCOc1ccc(C)cc1OC,–,inactive: -2.17%
Cc1cc2cc(CNC(=O)c3ccc(S(=O)(=O)N4CCOCC4)cc3)ccc2n1C,–,inactive: -6.68%
Cc1ccccc1-c1noc(-c2cccnc2N2CCN(c3ccccc3)CC2)n1,–,inactive: -1.99%
Cc1c(Cl)ccc2c(C(N)=O)cc(-c3ccccn3)nc12,–,inactive: -3.69%
CCSc1nnc(NC(=O)CSc2nnc(Cc3cccn3C)n2-c2ccc(C)cc2)s1,"inconclusive: 8.91 µM [inhibitor, single point]",–
COc1ccc(NC(=O)c2ccc3c(SCC(=O)O)c4c(nc3c2)CCCC4)c(OC)c1,"inconclusive: 39.8 µM [inhibitor, single point]",–
Cc1ccc(OCc2cc(C(=O)NCC(C)c3ccccc3)no2)cc1C (configuration not stated),"inconclusive: 0.141 µM [inhibitor, full curve]",–
O=c1[nH]c2cc3c(cc2cc1CN(Cc1ccccc1)Cc1nnnn1Cc1ccco1)OCCO3,"inconclusive: 35.5 µM [inhibitor, single point]",–
COc1ccc(S(=O)(=O)Nc2ccc3oc4c(c3c2)C(=O)CC(C)(C)C4)cc1,–,inactive: 7.36%
COCCN(CC(=O)Nc1ccccc1C)S(=O)(=O)c1ccc(S(=O)(=O)N2CCCC2)cc1,"inconclusive: 22.4 µM [inhibitor, partial curve]",–
COc1ccc(S(=O)(=O)N2CCN(C(=O)c3cc(-c4ccccc4OC)n[nH]3)CC2)cc1,"inconclusive: 7.08 µM [inhibitor, partial curve, poor fit]",–
COC(=O)c1[nH]c2ccccc2c1NC(=O)CN1CCN(c2cccc(Cl)c2)CC1,"inconclusive: 25.1 µM [inhibitor, single point]",–
Cc1ccc(NC(=O)c2ccc(F)cc2F)cc1NS(C)(=O)=O,"inconclusive: 1.26 µM [inhibitor, full curve, poor fit]",–
O=C(O)C1C2CCC(C2)C1C(=O)Nc1cccc([N+](=O)[O-])c1 (configuration not stated),–,inactive: 6.26%
CCCn1c2ccccc2c2nnc(SCC(=O)Nc3cc(C)on3)nc21,–,inconclusive: -91.9% [inhibitor] [at 0.501 µM]
COc1ccccc1OCCCCOc1ccccc1F,"inconclusive: 0.708 µM [inhibitor, single point]",–
O=C(Nc1ccccc1-c1nc2ccccc2s1)c1cccnc1Cl,"inconclusive: 39.8 µM [inhibitor, single point]",–
Cc1cc(C)c(S(=O)(=O)Nc2ccccc2-c2ccccc2)c(C)c1,"inconclusive: 3.55 µM [inhibitor, partial curve, poor fit]",–

# A few values from above.
# Value for O=C(Nc1ccccc1-c1nc2ccccc2s1)c1cccnc1Cl under Potency: inconclusive: 39.8 µM [inhibitor, single point]
# Value for COCCN(CC(=O)Nc1ccccc1C)S(=O)(=O)c1ccc(S(=O)(=O)N2CCCC2)cc1 under Potency: inconclusive: 22.4 µM [inhibitor, partial curve]
# Value for COc1ccc(S(=O)(=O)Nc2ccc3oc4c(c3c2)C(=O)CC(C)(C)C4)cc1 under activity change, negative = inhibition: inactive: 7.36%
# Value for COc1ccccc1OCCCCOc1ccccc1F under Potency: inconclusive: 0.708 µM [inhibitor, single point]

# Going on with the list.

SMILES,Potency,"activity change, negative = inhibition"
CCCCCCC(=O)Nc1cc2c(C)cc(=O)oc2cc1C,"inconclusive: 0.1 µM [inhibitor, full curve, poor fit]",–
Cc1c(N2C(=O)CS/C2=N\N=C\c2ccc(Br)cc2)c(=O)n(-c2ccccc2)n1C,active: 1.58 µM,–
Cc1ccc(CSc2nnc(Nc3ccc(C)cc3)s2)cc1,"inconclusive: 39.8 µM [inhibitor, single point]",–
CCOc1ccc(CCNC(=O)Cn2c(=O)c3cccn3c3ccc(F)cc32)cc1OCC,–,inactive: 1.94%
Cc1ccc(SCC(=O)NCc2ccccc2)cc1,"inconclusive: 35.5 µM [inhibitor, single point]",–
COc1ccc(-c2cc3ccc(O)c(CN4CCCC(C)C4)c3oc2=O)cc1 (configuration not stated),"inconclusive: 31.6 µM [inhibitor, partial curve]",–
O=C(COC(=O)C1(c2ccc(F)cc2)CCCC1)NCc1ccco1,"inconclusive: 28.2 µM [inhibitor, partial curve]",–
CCCCn1c(N)c(N(CC(C)C)C(=O)CSCc2c(C)noc2C)c(=O)[nH]c1=O,"inconclusive: 6.31 µM [inhibitor, single point]",–
CCc1nc2ccc(C(=O)N(C)CC(=O)Nc3ccc(Cl)c(C(F)(F)F)c3)cc2nc1CC,"inconclusive: 22.4 µM [inhibitor, single point]",–
Cc1cc(N/N=C/c2ccccc2O)c2ccccc2n1,"inconclusive: 0.891 µM [inhibitor, full curve, poor fit]",–
Cc1ccc(CSc2nnc(-c3ccccc3N)c(=O)[nH]2)cc1,–,inconclusive: -89% [inhibitor] [at 0.501 µM]
Cc1onc(-c2c(Cl)cccc2Cl)c1C(=O)N/N=C(\N)COc1ccc(Cl)cc1,"inconclusive: 0.141 µM [inhibitor, full curve, poor fit]",–
CCN1CCc2nc3sc(C(=O)c4ccccc4)c(N)c3cc2C1,–,inactive: -5.36%
Nc1nc(SCC(=O)Nc2ncc(Cl)cc2Cl)n[nH]1,–,inactive: -3.04%
CCCn1c(C2CCCN2c2nc(-c3cccc(Br)c3)cs2)nc2cc(Cl)c(Cl)cc21 (configuration not stated),"inconclusive: 31.6 µM [inhibitor, single point]",–
CC(NC(=O)C1C(=O)N(CCO)C2(C)CC1c1ccccc1O2)c1ccccc1 (configuration not stated),"inconclusive: 1.78 µM [inhibitor, single point]",–
O=C(NCc1ccccn1)c1coc(=O)c(Br)c1,–,inactive: -24.5%
CCOc1cc(/C=C2/NC(=O)NC2=O)cc(Br)c1OCc1ccc(C(=O)O)cc1,"inconclusive: 31.6 µM [inhibitor, single point]",–
C/C=C(\C)C(=O)NCCN1C2=NC[C@@H](C)N2C[C@@H]1Cc1ccc(OC)cc1,–,inactive: -0.555%
O=C1N=c2ccccc2=C1c1sc(Nc2ccc(O)cc2)nc1O,"inconclusive: 15.8 µM [inhibitor, partial curve]",–
CC(C)/C=C/CN1CCC(Oc2ccc(C(=O)N3CCCC3)cc2)CC1,"inconclusive: 39.8 µM [inhibitor, single point]",–
Cc1cc(Br)ccc1NC(=O)c1cn(C2CCCC2)c(=O)c2c1c1ccccc1n2C,–,inactive: -0.668%
COc1ccc(-c2cc(=O)n(-c3nc4ccccc4[nH]3)[nH]2)cc1,"inconclusive: 0.708 µM [inhibitor, full curve, poor fit]",–

SMILES,Potency,"activity change, negative = inhibition"
CCN(C(=O)Cn1cc(S(=O)(=O)Cc2ccccc2Cl)c2ccccc21)c1ccccc1,"inconclusive: 39.8 µM [inhibitor, single point]",–
CCOC(=O)c1ccc(NC(=O)C(CC)Sc2nc3ncccc3o2)cc1 (configuration not stated),–,inactive: 1.26%
Cc1ccc(C(=O)c2ccccc2C(=O)O)s1,"inconclusive: 8.91 µM [inhibitor, single point]",–
Cc1cccc(N(C)S(=O)(=O)c2cc3c(cc2C)n(C)c(=O)c(=O)n3C)c1,"inconclusive: 0.794 µM [inhibitor, single point]",–
COc1ccc2nc(NC(=O)c3ccccc3O)sc2c1,"inconclusive: 0.316 µM [inhibitor, full curve, poor fit]",–
Cc1ccc(CCNC(=O)C2CC(c3ccccc3[N+](=O)[O-])=NO2)cc1 (configuration not stated),"inconclusive: 1 µM [inhibitor, full curve, poor fit]",–
FC(F)(F)c1cccc(Nc2nc(N3CCOCC3)nc(N3CCOCC3)n2)c1,–,inactive: -12.7%
COc1cc(NC(=O)NCC2CCN(Cc3ccccc3F)CC2)cc(OC)c1,"inconclusive: 31.6 µM [inhibitor, single point]",–
Cc1ccccc1CS(=O)(=O)Cc1ccc(C(=O)NCc2ccco2)o1,"inconclusive: 0.631 µM [inhibitor, partial curve, poor fit]",–
CCn1c(=O)n(-c2ccc(F)c(Cl)c2)c(=O)c2c3c(sc21)CN(C(C)=O)CC3,–,inactive: -1.73%
COc1cc(/C=C2\CCC/C(=C\c3ccc(O)c(OC)c3)C2=O)ccc1O,"inconclusive: 39.8 µM [inhibitor, single point]",–
COc1ccccc1-n1c(SCC(=O)N2CCCCC2)nc(O)c(Cc2ccccc2)c1=O,"inconclusive: 0.141 µM [inhibitor, full curve, poor fit]",–
CC(=O)NNC(=S)NC(=O)c1cccc([N+](=O)[O-])c1,"inconclusive: 17.8 µM [inhibitor, partial curve]",–
COc1ccc(C(CNC(=O)c2cc3c(s2)CCCC3)N2CCOCC2)cc1 (configuration not stated),"inconclusive: 2.24 µM [inhibitor, partial curve]",–
O=C(NCc1ccco1)C12CN(Cc3ccccc3)CC1C(c1ccc([N+](=O)[O-])cc1)=NO2 (configuration not stated),"inconclusive: 10 µM [inhibitor, partial curve, poor fit]",–
COCCN(CC(=O)Nc1cccc(C)c1C)C(=O)c1cc2ccccc2cc1OC,"inconclusive: 35.5 µM [inhibitor, single point]",–
CCCn1c(=O)c2ccccc2n2c(SCC(=O)c3ccc(F)cc3)nnc12,"inconclusive: 7.08 µM [inhibitor, single point]",–
Cc1cc(C)cc(NC(=O)Cc2ccc(NC3=NC4CS(=O)(=O)CC4S3)cc2)c1 (configuration not stated),"inconclusive: 39.8 µM [inhibitor, single point]",–
CC(=O)Oc1ccc2c(=O)c(/C=N/c3cc(=O)[nH]c(=S)[nH]3)coc2c1,–,inactive: -26.1%
Cc1cc(N/N=C\c2ccccc2)nc(-c2ccccc2O)n1,"inconclusive: 5.01 µM [inhibitor, partial curve]",–
O=C(/C=C/c1ccccc1)NCCS(=O)(=O)N1CCN(c2ccccc2F)CC1,"inconclusive: 39.8 µM [inhibitor, single point]",–
